Measurements as given in paper PMC5507890.
No constants are given. Whether binding was seen depends on the method and setting. In cells and extracts the contact can be indirect.

Sequences of proteins named here, by UniProt entry; tags and fusion partners are left off. Residues count along the entry.
UniProt P35739, residues 33-799: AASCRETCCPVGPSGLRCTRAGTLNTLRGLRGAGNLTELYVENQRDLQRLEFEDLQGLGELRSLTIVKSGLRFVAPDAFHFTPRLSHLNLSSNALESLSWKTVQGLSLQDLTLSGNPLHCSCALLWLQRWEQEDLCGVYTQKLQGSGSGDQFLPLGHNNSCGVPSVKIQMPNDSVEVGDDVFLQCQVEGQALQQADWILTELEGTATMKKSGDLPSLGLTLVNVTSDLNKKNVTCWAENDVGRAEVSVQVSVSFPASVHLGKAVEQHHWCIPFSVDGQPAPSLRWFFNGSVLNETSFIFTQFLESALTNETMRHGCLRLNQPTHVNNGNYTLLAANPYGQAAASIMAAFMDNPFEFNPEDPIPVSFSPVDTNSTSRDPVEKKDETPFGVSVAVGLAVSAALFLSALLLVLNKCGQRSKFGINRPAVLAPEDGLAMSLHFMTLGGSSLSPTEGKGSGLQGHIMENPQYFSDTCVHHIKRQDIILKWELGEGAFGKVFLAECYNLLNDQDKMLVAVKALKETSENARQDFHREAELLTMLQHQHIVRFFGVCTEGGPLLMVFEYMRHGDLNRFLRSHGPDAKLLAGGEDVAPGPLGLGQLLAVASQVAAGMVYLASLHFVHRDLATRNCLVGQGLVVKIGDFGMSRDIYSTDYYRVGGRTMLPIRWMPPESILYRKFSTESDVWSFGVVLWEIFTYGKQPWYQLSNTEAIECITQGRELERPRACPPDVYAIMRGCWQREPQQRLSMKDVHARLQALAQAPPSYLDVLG

Biological target: T1, Membrane progesterone receptor beta (mPRβ/Paqr8) (rat (endogenous in PC12)) (UniProt Q6AY03)
T1 sequence: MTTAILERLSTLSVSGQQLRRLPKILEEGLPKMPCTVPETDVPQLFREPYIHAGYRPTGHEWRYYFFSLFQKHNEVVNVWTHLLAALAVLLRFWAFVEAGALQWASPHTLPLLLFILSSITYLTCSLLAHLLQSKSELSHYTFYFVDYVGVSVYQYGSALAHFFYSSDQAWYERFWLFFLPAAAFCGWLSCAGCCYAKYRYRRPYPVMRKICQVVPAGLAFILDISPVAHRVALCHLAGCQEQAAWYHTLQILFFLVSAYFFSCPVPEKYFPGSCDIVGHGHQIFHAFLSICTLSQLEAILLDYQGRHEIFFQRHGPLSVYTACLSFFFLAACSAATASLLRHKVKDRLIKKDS
Test: co-IP; lysates of cells left untreated or treated for 5 min with progesterone (10 μM) or NGF (100 ng/ml); immunoprecipitated with anti-mPRβ antibodies, blotted with anti-mPRβ and anti-TrkA antibodies

binding: no binding
Substance: TrkA (from UniProt P35739 33-799) (receptor)
